From PubChem BioAssay AID587 (National Center for Advancing Translational Sciences (NCATS), 2007)
About 35 (0.06%) of roughly 59,000 compounds were called active. Inconclusive results, whose numbers are uncertain, are shown with a selection of clear calls. Rule as the data show it: active = max dye-equivalent concentration above about 10 nM; inconclusive = between about 1.1 nM and that limit; inactive = weaker than that.

Experiment: qHTS Assay for Spectroscopic Profiling in Texas Red Spectral Region
Details: Compound fluorescence, Texas Red channel, 547/618 nm; stronger effect = higher value
Outline: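 Pin-transferred compounds and Texas Red standards go into 100 mM Tris buffer, pH 8.0. After 15 min at room temperature, plates are imaged with 547/618 nm filters. Each value is a dye-equivalent concentration derived from the per-plate dye curve.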

Row | SMILES | max dye-equivalent concentration
1 | COc1ccc(Cl)cc1NC(=O)c1oc(C)nc1C | inactive
2 | CCC(=O)N1c2ccc(S(=O)(=O)CCC(=O)NC3CCCC3)cc2CC1C (centres undefined) | inconclusive: 1.6 nM
3 | COc1ccc(OC)c(C(=O)CC2OC(=O)c3ccccc32)c1 (centres undefined) | inconclusive: 1.6 nM
4 | Fc1ccc(Br)cc1C1C=C(c2ccc(Br)s2)Nc2ncnn21 (centres undefined) | inactive
5 | CC(SCc1ccccc1)C(=O)NC1CCCC1 (centres undefined) | inconclusive: 1.1 nM
6 | CS(=O)(=O)N1CCc2cc(S(=O)(=O)Nc3ccc4c(c3)OCCO4)ccc21 | inconclusive: 1.3 nM
7 | O=C(O)CN(CCN(CC(=O)O)CC(=O)O)CC(=O)O.[Mn] | inconclusive: 1.1 nM
8 | Cn1c(SCc2ccccc2F)nnc1-c1cnccn1 | inconclusive: 1.3 nM
9 | Cc1ccc(C(C)NC(=O)c2c(C)noc2C)cc1C (centres undefined) | inactive
10 | Nc1nc(N2CCOCC2)nc2ccccc12 | inconclusive: 1.9 nM
11 | CC(CC(=O)O)(CC(=O)O)c1ccccc1 | inactive
12 | c1ccc(COc2cccc(CN3CCN(c4ccccn4)CC3)c2)cc1 | inconclusive: 1.8 nM
13 | O=C(NC1CCCCCC1)c1c(O)c2cccc3c2n(c1=O)CCC3 | inconclusive: 1.6 nM
14 | O=C1O/C(=C\Br)CC[C@@H]1c1cccc2ccccc12 | inactive
15 | Cc1ccc(N(C(=O)Cn2nnc3ccccc32)C(C(=O)NC2CCCCC2)c2cn(C)nc2C)cc1 (centres undefined) | inconclusive: 1.4 nM
16 | O=C(OC(C(=O)NCC1CCCO1)c1ccc(F)cc1)c1ccco1 (centres undefined) | inconclusive: 1.1 nM
17 | CCNc1ccc(C(=O)OCC)cc1NC(=O)c1cc(S(=O)(=O)N2CCOCC2)ccc1C | inconclusive: 1.5 nM
18 | Oc1ccc(-c2nc(-c3ccc(F)cc3)c(-c3ccncc3)[nH]2)cc1 | inconclusive: 1.1 nM
19 | CCOC(=O)c1ccc(-c2n[nH]c(=O)c3ccccc23)cc1 | inconclusive: 1.6 nM
20 | CCCNC(=O)NC(=O)COC(=O)c1ccc(OC)c(S(=O)(=O)N2CCCc3ccccc32)c1 | inconclusive: 1.4 nM
21 | O=C(CCn1c(=O)oc2ccccc21)N1CCN(C(c2ccccc2)c2ccccc2)CC1 | inconclusive: 1.5 nM
22 | CC(C)(C)c1cnnn1-c1ccc(NC(=O)c2ccc(Br)o2)cc1 | inconclusive: 1.2 nM

Part of the list above, reformatted:
Row	SMILES	max dye-equivalent concentration
20	CCCNC(=O)NC(=O)COC(=O)c1ccc(OC)c(S(=O)(=O)N2CCCc3ccccc32)c1	inconclusive: 1.4 nM
21	O=C(CCn1c(=O)oc2ccccc21)N1CCN(C(c2ccccc2)c2ccccc2)CC1	inconclusive: 1.5 nM

(cont.)

Row | SMILES | max dye-equivalent concentration
23 | COc1cc(NC(=O)c2ccc(COc3ccccc3Br)o2)cc(OC)c1OC | inconclusive: 1.4 nM
24 | COC(=O)c1cc(Br)c(=O)n(-c2ccccc2OC)c1 | inconclusive: 1.4 nM
25 | CC(C)OC(=O)CC(=O)c1sc2nc3c(cc2c1N)CN(C)CC3 | inactive
26 | CC1(Cc2cn(CCC#N)c3ccccc23)OCCO1 | inconclusive: 1.1 nM
27 | Cc1cccc(-n2cnc3cc(C(=O)N4CCCCC4)ccc32)c1 | inconclusive: 1.8 nM
28 | CCCCNC(=O)CCSc1nc2nc(C)cc(C)n2n1 | inconclusive: 1.2 nM
29 | Nc1nc2c(nc(Br)n2[C@@H]2O[C@H]3COP(=O)(O)O[C@@H]3[C@H]2O)c(=O)[nH]1 | inactive
30 | O=C(NCCCc1ccccc1)C1CC(=O)N(c2ccc3c(c2)OCCO3)C1 (centres undefined) | inconclusive: 1.4 nM
31 | CN(C)CCCNc1cc(O)c2c(c1O)C(=O)c1ccccc1C2=O | active: 46 nM
32 | CN(C/C=C\c1ccccc1)Cc1cccc2ccccc12 | inconclusive: 1.4 nM
33 | OC(COc1ccc(Br)cc1)CN1CCOCC1 (centres undefined) | inconclusive: 1.1 nM
34 | Cc1ccc(S(=O)(=O)N(CC(O)CN2CCCC2)c2ccccc2)cc1 (centres undefined) | inconclusive: 1.9 nM
35 | COc1cc(C(=O)N2CCC(n3cnc4cc(F)ccc43)CC2)cc(OC)c1OC | inconclusive: 2.4 nM
36 | CC1(C)CC(=O)C2=C(C1)NC(SCC(=O)Nc1ccccc1)=C(C#N)C21CCCCC1 | inconclusive: 1.1 nM
37 | Nc1nc(NCc2ccco2)nn1-c1ccccc1 | inconclusive: 2 nM
38 | CC(NC(=O)c1ccco1)c1ccc2c(c1)OCCO2 (centres undefined) | inactive
39 | Brc1cccc(-c2nnc3sc(CN4CCC5(CC4)OCCO5)cn23)c1 | inconclusive: 1.4 nM
40 | Cc1ccc(-c2nc(C3CCCN(S(=O)(=O)c4ccc(C(F)(F)F)cc4)C3)no2)cc1 (centres undefined) | inconclusive: 1.6 nM
41 | COc1cc(NC(=O)CSc2nccc(C)n2)c(C(=O)O)cc1OC | inconclusive: 1.4 nM
42 | Nc1cnn(C2CCCO2)c(=O)n1 (centres undefined) | inconclusive: 3.5 nM
43 | CCOCCCN(Cc1cc2cc(C)cc(C)c2[nH]c1=O)C(=O)N(CC)CC | inconclusive: 2.2 nM
44 | COC(=O)c1ccccc1NC(=O)c1ccc(-c2ccccc2F)o1 | inconclusive: 1.3 nM
